Assay results published in PMC8270675.
No constants are given. Whether binding was seen depends on the method and setting. In cells and extracts the contact can be indirect. Some binding calls cover weakened binding; strength is not graded here. Where a sequence is shown, tags or fusion partners need not be part of it.

Biological target: T1, Rps2-FLAG (C-terminally FLAG-tagged RPS2/uS5, 40S ribosomal subunit protein) (S. cerevisiae) (UniProt P25443)
T1 sequence: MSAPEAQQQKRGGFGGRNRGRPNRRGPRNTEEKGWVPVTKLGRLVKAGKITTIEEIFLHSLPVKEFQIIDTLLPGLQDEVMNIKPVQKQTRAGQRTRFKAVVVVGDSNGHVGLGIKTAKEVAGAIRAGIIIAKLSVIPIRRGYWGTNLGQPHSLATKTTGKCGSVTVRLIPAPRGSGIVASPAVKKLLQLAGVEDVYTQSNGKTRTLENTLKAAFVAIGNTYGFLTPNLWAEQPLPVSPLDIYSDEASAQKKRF
Test: co-IP; Rps2-FLAG-tagged 40S ribosomes immunoprecipitated from yeast lysates (WT and hES9S rRNA strains) on anti-FLAG M2 affinity agarose at 4°C, lysis buffer 20 mM Tris-HCl pH 7.5, 150 mM NaCl, 1.5 mM MgCl2, 2 mM DTT; washed (300 mM NaCl wash buffer), eluted with 3xFLAG peptide; western blot of input, unbound and elution

- binding: binds
B1: Rps5/uS7 (40S ribosomal subunit component) (protein, UniProt P26783 1-225)
chain: MSDTEAPVEVQEDFEVVEEFTPVVLATPIPEEVQQAQTEIKLFNKWSFEEVEVKDASLVDYVQVRQPIFVAHTAGRYANKRFRKAQCPIIERLTNSLMMNGRNNGKKLKAVRIIKHTLDIINVLTDQNPIQVVVDAITNTGPREDTTRVGGGGAARRQAVDVSPLRRVNQAIALLTIGAREAAFRNIKTIAETLAEELINAAKGSSTSYAIKKKDELERVAKSNR
